The source of these data is patent publication US5023079A, “Heptaene V-28-3 antibiotic derivative” (Ajinomoto Co., Inc., priority 1987, dated 1991).

Structures are written as SMILES. In brackets after ≈: the same amount, converted by molar mass.

This assay has as its system Candida albicans ATCC 10231. Kind of assay: Minimal inhibitory concentration (MIC) on Sabraud's agar. In kind it is cell-based. The note with it: ATCC 10231 / ATCC 102331, 48 h, read-out: Minimal inhibitory concentration (MIC). Here is the method:
The experiment (Table 1) was made by the usual MIC measuring method using Sabraud's agar. The MIC was determined 48 hours later.

`C[C@@H]1[C@H](O)[C@@H](C)/C=C/C=C/C=C/C=C/C=C/C=C/C=C/[C@H](O[C@@H]2O[C@H](C)[C@@H](O)[C@H](N)[C@@H]2O)C[C@@H]2O[C@](O)(C[C@@H](O)C[C@@H](O)[C@H](O)CC[C@@H](O)C[C@@H](O)CC(=O)O[C@H]1C)C[C@H](O)[C@H]2C(=O)O` [amphotericin B]: the MIC stood at 1.56 µg/mL (≈ 1.69 µM).
